# Source: PMC6925144, “A prospective compound screening contest identified broader inhibitors for Sirtuin 1” (Scientific Reports, 2019)
# Sequences of proteins named here, by UniProt entry; tags and fusion partners are left off. Residues count along the entry.
# UniProt Q96EB6, 2-747 limits assumed: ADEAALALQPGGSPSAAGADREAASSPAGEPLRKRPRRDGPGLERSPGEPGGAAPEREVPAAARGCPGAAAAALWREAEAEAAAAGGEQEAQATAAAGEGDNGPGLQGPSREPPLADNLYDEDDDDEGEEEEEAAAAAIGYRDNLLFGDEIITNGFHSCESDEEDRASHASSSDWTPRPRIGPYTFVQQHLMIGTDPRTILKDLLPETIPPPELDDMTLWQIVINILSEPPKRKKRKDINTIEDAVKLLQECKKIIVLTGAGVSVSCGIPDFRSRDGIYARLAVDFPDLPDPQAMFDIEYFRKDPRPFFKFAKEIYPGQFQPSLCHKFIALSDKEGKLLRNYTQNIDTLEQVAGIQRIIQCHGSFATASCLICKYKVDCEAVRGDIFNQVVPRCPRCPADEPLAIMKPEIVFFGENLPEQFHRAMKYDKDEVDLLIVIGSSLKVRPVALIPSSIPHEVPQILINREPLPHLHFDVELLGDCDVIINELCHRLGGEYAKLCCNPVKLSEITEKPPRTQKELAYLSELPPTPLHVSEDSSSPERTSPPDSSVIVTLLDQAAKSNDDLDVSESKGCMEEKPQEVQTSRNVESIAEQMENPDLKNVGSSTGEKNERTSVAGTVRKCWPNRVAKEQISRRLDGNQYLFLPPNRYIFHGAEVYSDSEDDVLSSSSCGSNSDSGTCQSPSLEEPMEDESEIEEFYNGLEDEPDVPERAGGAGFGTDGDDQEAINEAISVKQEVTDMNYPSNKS
# Over roughly 3,200 compounds, “TSA(with NAD+) / Primary screening (TSA) / delta Tm (K)” has its median near -0.04; the highest 2% begin near 0.37. The list shows a part of the results.
# Biological target: NAD-dependent deacetylase Sirtuin 1 (human, UniProt Q96EB6)
# Assay: primary screen, delta tm
# Parameters: single well (n = 1, as 'the same TSA')
# Settings: 10 µM
row,SMILES,TSA(with NAD+) / Primary screening (TSA) / delta Tm (K)
1,CNc1ncnc2c1cnn2-c1ccccc1,-0.28 K
2,O=C(NC1CC1)c1ccc2[nH]c3c(c2c1)CCCC3,-0.16 K
3,Cc1nnc(C(C)Oc2ccc3c(c2)CCCNC3=O)o1 (stereo not drawn),-0.11 K
4,Cc1cc(S(=O)(=O)Nc2ccc(C(=O)NCc3ccccc3-n3cccn3)cc2)ccc1F,0.03 K
5,Cc1ccc(C(=O)OCc2ccc(C(=O)Nc3ccccc3)cc2)cc1,-0.18 K
6,CCS(=O)(=O)NCC(=O)O,-0.12 K
7,CC(C)C(=O)NCCc1ccc(Cl)s1,0.09 K
8,O=C(Nc1cccc(Cn2[nH]c(=O)ccc2=O)c1)c1cccc(Oc2ccccc2)c1,-0.19 K
9,Cc1cc(C)cc(N(Cc2ccc(C(N)=O)cc2)Cc2ccc(C(N)=O)cc2)c1,-0.03 K
10,O=C(O)c1cccc2ccccc12,-0.06 K
11,CN1CCC(Sc2ccc3ccccc3c2)C1=O (stereo not drawn),-0.19 K
12,CN(c1ccc(C(N)=O)cc1)S(=O)(=O)c1ccc2c(c1)CCC2,-0.23 K
13,O=C(Cn1[nH]c(=O)c2ccccc2c1=O)Nc1cccc(S(=O)(=O)NCc2ccco2)c1,-0.01 K
14,Cc1nn(-c2ccccc2)cc1C=C1C(=O)NC(=S)NC1=O,-0.01 K
15,C[C@@H](N)C(N)=O,-0.12 K
16,CN(CCCc1cc(-c2ccccc2)n(C)n1)C(=O)CCc1c[nH]c2ccccc12,-0.13 K
17,NC(=O)c1ccccc1NC(=O)CCN1CCN(c2ncccn2)CC1,-0.06 K
18,O=c1cc(NCCCc2ccccc2)nc2ccccn12,-0.05 K
19,CCOC(=O)c1c(NC(=O)COC(=O)c2ccc(C)c(O)c2)sc(C(=O)N(CC)CC)c1C,0.06 K
20,Cc1ccc(OCCCCn2cncn2)c(C)c1,-0.18 K
21,NCCC1(O)CNC1,-0.03 K
22,CN(CCC#N)C(=O)C(C)(C)c1ccccc1,-0.08 K
23,Cc1cc(C2=NN=C(NCc3ccco3)SC2)c(C)n1Cc1ccc2c(c1)OCO2,-0.43 K
24,C=CCOc1ccc(C2C(C(=O)c3ccco3)=C(O)C(=O)N2CCCN2CCOCC2)cc1 (stereo not drawn),-0.13 K

row,SMILES,TSA(with NAD+) / Primary screening (TSA) / delta Tm (K)
1,CC(C)CC(=O)Nc1ccc(C(=O)COC(=O)CNC(=O)CC23CC4CC(CC(C4)C2)C3)cc1,0.07 K
2,O=C(Nc1nnc[nH]1)C1CC(=O)N(c2ccc3c(c2)CCC3)C1 (stereo not drawn),-0.04 K
3,CCNC(=O)NCc1ccc(NC(=O)c2ccc([N+](=O)[O-])cc2)cc1,-0.12 K
4,CC(OC(=O)c1ccc(CS(C)(=O)=O)cc1)C(=O)NCc1ccco1 (stereo not drawn),-0.01 K
5,COc1ccc(NC(=O)CC23CC4CC(C2)CC(CC(=O)Nc2ccc(OC)cc2)(C4)C3)cc1,-0.11 K
6,NC(=S)c1cccc(NC(=O)CN2CCOCC2)c1,-0.24 K
7,NC(=O)c1ccc(COC(=O)c2ccc(S(=O)(=O)NC3CC3)cc2)cc1,-0.11 K
8,CCn1nc(C(=O)N(C)Cc2ccc(OCc3ccccc3)c(OC)c2)c2ccccc2c1=O,-0.01 K
9,Cn1ccnc1-c1sc(NC(=O)c2ccccc2Br)nc1-c1ccccc1,0.05 K
10,COc1ccc(OC)c(C2CCCN2C(=O)c2ccc(NC(=O)c3ccco3)s2)c1 (stereo not drawn),-0.18 K
11,COC(=O)c1ccccc1NC(=O)Cc1c[nH]c2ccccc12,-0.16 K
12,COC(=O)c1c(C)[nH]c(C(=O)NCCc2ccc(-n3cccn3)cc2)c1C,-0.03 K
13,CN(c1ccc(F)c(F)c1)S(=O)(=O)c1ccc2nc[nH]c(=O)c2c1,0.16 K
14,c1ccc(-c2noc(CN3CCN(c4nc(-c5ccsc5)nc5ccccc45)CC3)n2)cc1,0.13 K
15,O=C(NNC(=O)c1cnccn1)c1ccc(OCc2ccccc2)cc1,0.01 K
16,O=c1[nH]cnc2c(Cl)cc(Cl)cc12,-0.16 K
17,COCCC(C)N (stereo not drawn),-0.11 K
18,Cn1ncc2c(=O)n(CC(=O)Nc3cc(C(N)=O)ccc3N3CCCC3)cnc21,-0.12 K
19,Cc1ccc(-c2nc(C)sc2CC(=O)Nc2ccc(C(N)=O)cc2)cc1,-0.08 K
20,COc1cccc(C2(C)NC(=O)N(CC(=O)Nc3ccc(C(N)=O)cc3)C2=O)c1 (stereo not drawn),0.15 K
21,Cc1ccc(-c2nn(-c3ccccc3)cc2C(=O)Nc2cccc(S(=O)(=O)N3CCOCC3)c2)cc1,0.26 K
22,CC(C)(C)OC(=O)N1CCN(C(=O)CNc2ccccc2C(N)=O)CC1,0.06 K
23,C=CCSCCN,0.05 K
24,O=[N+]([O-])c1ccc(-c2nnc(CSc3nnc(NCc4ccccc4)s3)o2)cc1,-0.01 K

# Part of the list above in order of molecular weight, low to high:
row,SMILES,TSA(with NAD+) / Primary screening (TSA) / delta Tm (K)
10,O=C(O)c1cccc2ccccc12,-0.06 K
3,Cc1nnc(C(C)Oc2ccc3c(c2)CCCNC3=O)o1 (stereo not drawn),-0.11 K
23,Cc1cc(C2=NN=C(NCc3ccco3)SC2)c(C)n1Cc1ccc2c(c1)OCO2,-0.43 K
9,Cn1ccnc1-c1sc(NC(=O)c2ccccc2Br)nc1-c1ccccc1,0.05 K
